Among the data in PMC7795679 are binding values, retold here.

The chains behind the UniProt entries cited, without tags or fusion partners.
UniProt P32300: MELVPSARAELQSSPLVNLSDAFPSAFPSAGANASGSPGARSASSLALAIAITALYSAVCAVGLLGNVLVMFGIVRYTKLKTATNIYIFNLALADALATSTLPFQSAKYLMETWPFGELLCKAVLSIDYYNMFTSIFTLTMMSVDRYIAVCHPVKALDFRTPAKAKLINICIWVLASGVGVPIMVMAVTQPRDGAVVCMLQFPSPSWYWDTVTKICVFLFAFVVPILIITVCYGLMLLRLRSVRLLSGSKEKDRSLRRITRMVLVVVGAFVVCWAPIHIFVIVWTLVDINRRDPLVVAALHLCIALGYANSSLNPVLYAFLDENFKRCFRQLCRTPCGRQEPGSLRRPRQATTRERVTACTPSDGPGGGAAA
UniProt P42866: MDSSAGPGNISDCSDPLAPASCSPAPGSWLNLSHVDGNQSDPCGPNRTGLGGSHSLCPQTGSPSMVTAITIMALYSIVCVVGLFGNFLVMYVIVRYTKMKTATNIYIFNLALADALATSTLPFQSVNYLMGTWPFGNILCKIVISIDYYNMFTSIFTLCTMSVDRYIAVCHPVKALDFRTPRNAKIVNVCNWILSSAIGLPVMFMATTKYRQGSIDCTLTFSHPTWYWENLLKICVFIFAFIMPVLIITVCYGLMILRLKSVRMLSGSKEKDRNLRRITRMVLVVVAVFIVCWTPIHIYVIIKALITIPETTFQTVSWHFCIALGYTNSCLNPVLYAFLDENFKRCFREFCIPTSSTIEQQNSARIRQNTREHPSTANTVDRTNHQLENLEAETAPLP

No constants are given. Whether binding was seen depends on the method and setting. In cells and extracts the contact can be indirect. Some binding calls cover weakened binding; strength is not graded here.

For assay [1], the target named is delta-opioid receptor (DOR) (mouse (endogenous in mouse nervous tissue)) (UniProt P32300). The assay is described as follows: co-IP; solubilised (1% Nonidet P-40) synaptosomal P2 fractions of mouse cortex, PAG, pons-medulla, spinal cord and DRG; biotinylated IgGs against MOR, DOR or NR1 with streptavidin agarose, 4 °C overnight; Western blot; also after icv NMDA, icv or ip morphine, intraplantar formalin, CCI, and in HINT1-/- and σ1R-/- mice.

The target in assay [2] is mu-opioid receptor (MOR) (mouse (endogenous in mouse nervous tissue)) (UniProt P42866). The assay is described as above.
The target is the same in assay [3]. The experiment in a line: co-IP; DRG of mice killed 5 min after intraplantar 0.5% formalin; solubilised membranes, immunoprecipitation and Western blot.

On to “Transient receptor potential ankyrin member 1 (TRPA1) channel monomer (from UniProt Q8BLA8 1-1125)”, for which the binding result in assay [1] is “binds”.
In the case of “NR1 subunit of the glutamate N-methyl-D-aspartate receptor (NMDAR) (from UniProt P35438-1 19-938)”, the binding result was “binds” in assay [2] and “binds weakly” in assay [3].
